Data as given in PubChem BioAssay AID743121 (NCATS, 2013).
Here is an unselected part of about 26,000 reagents. 167 of them (0.63%) were called active. 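Calls are per gene from RSA p-values that are not deposited; an individual active-marked siRNA can sensitise only weakly.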 A number with no mark means an inactive call. The numbers tell different reagents against one gene apart. Further read-outs or replicates are left out here.

- Assay: 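Genes whose silencing strengthens cell killing by camptothecin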 (primary screen)
- System: MDA-MB-231 cells, a human breast cancer line
- Reagents: single siRNA against human genes, 20 nM siRNA (0.8 pmol per well)
- Duration: 120 h (drug added 48 h after transfection, read 72 h later)
- Challenge: camptothecin 20 nM (about EC30) for 72 h; vehicle 0.1% DMSO in parallel plates
- Detection: 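CellTiter-Glo ATP signal, scaled to control siRNA as percent viability; sensitisation given as log2 of untreated divided by camptothecin-treated viability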
- Scale: log2 vehicle/camptothecin viability: higher = stronger sensitisation to camptothecin; viability with camptothecin: higher = more viable cells
- Units: viability with camptothecin in % of control
- Rule for the call: 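Active genes have an RSA gene-level p-value below 0.001, computed from the ratios of their separate siRNAs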

What did the screen give for CDKN2B (cyclin dependent kinase inhibitor 2B) #1?
log2 vehicle/camptothecin viability: 0.701; viability with camptothecin: 33.1

What did the screen give for CDKN2B (cyclin dependent kinase inhibitor 2B) #2?
log2 vehicle/camptothecin viability: -0.159; viability with camptothecin: 88.3

For CDKN2B (cyclin dependent kinase inhibitor 2B) #3, what was measured?
log2 vehicle/camptothecin viability: -0.0813; viability with camptothecin: 103

For CDKN2B (cyclin dependent kinase inhibitor 2B) #4, how do the results read?
log2 vehicle/camptothecin viability: -0.785; viability with camptothecin: 83.4

For INSL4 (insulin like 4) #1, what was measured?
log2 vehicle/camptothecin viability: -0.132; viability with camptothecin: 64.9

How did the screen score INSL4 (insulin like 4) #2?
log2 vehicle/camptothecin viability: 0.0433; viability with camptothecin: 88

How did the screen score INSL4 (insulin like 4) #3?
log2 vehicle/camptothecin viability: 0.0733; viability with camptothecin: 71

For EDN3 (endothelin 3) #1, how do the results read?
log2 vehicle/camptothecin viability: 0.0306; viability with camptothecin: 87.5

For EDN3 (endothelin 3) #2, what was measured?
log2 vehicle/camptothecin viability: 0.723; viability with camptothecin: 41.3

For EDN3 (endothelin 3) #3, what does the deposit list?
log2 vehicle/camptothecin viability: 0.152; viability with camptothecin: 71.5

With EDN3 (endothelin 3) #4, what was measured?
log2 vehicle/camptothecin viability: 1.29; viability with camptothecin: 7.53

With HEMK1 #1, how do the results read?
log2 vehicle/camptothecin viability: 0.0971 (active); viability with camptothecin: 70.2

For HEMK1 #2, what does the deposit list?
log2 vehicle/camptothecin viability: 0.47 (active); viability with camptothecin: 5.43

What is on record for HEMK1 #3?
log2 vehicle/camptothecin viability: 0.407 (active); viability with camptothecin: 15.7

For HEMK1 #4, how do the results read?
log2 vehicle/camptothecin viability: 0.618 (active); viability with camptothecin: 58.2

How did the screen score CCNH (cyclin H) #1?
log2 vehicle/camptothecin viability: 0.00438; viability with camptothecin: 70.1

What is on record for CCNH (cyclin H) #2?
log2 vehicle/camptothecin viability: -0.427; viability with camptothecin: 53.6

Which result is listed for CCNH (cyclin H) #3?
log2 vehicle/camptothecin viability: -0.268; viability with camptothecin: 111

For TFEB (transcription factor EB) #1, what does the deposit list?
log2 vehicle/camptothecin viability: -0.227; viability with camptothecin: 84.2

With TFEB (transcription factor EB) #2, what does the deposit list?
log2 vehicle/camptothecin viability: -0.723; viability with camptothecin: 2.71

Which result is listed for TFEB (transcription factor EB) #3?
log2 vehicle/camptothecin viability: -0.28; viability with camptothecin: 63.5

For TFEB (transcription factor EB) #4, what does the deposit list?
log2 vehicle/camptothecin viability: -0.169; viability with camptothecin: 66.6

Which result is listed for SPHK2 (sphingosine kinase 2) #1?
log2 vehicle/camptothecin viability: -0.188; viability with camptothecin: 54.4

For SPHK2 (sphingosine kinase 2) #2, how do the results read?
log2 vehicle/camptothecin viability: 0.0304; viability with camptothecin: 55.9

With SPHK2 (sphingosine kinase 2) #3, how do the results read?
log2 vehicle/camptothecin viability: 0.723; viability with camptothecin: 27.3

What did the screen give for SPHK2 (sphingosine kinase 2) #4?
log2 vehicle/camptothecin viability: -0.581; viability with camptothecin: 85.4

How did the screen score METAP1 (methionyl aminopeptidase 1) #1?
log2 vehicle/camptothecin viability: 0.0232; viability with camptothecin: 77.9

With METAP1 (methionyl aminopeptidase 1) #2, what does the deposit list?
log2 vehicle/camptothecin viability: -0.119; viability with camptothecin: 107

With METAP1 (methionyl aminopeptidase 1) #3, what does the deposit list?
log2 vehicle/camptothecin viability: -0.0637; viability with camptothecin: 81.4

With METAP1 (methionyl aminopeptidase 1) #4, what does the deposit list?
log2 vehicle/camptothecin viability: -0.181; viability with camptothecin: 91.7

What is on record for MAP3K4 (mitogen-activated protein kinase kinase kinase 4) #1?
log2 vehicle/camptothecin viability: -0.284; viability with camptothecin: 104

For MAP3K4 (mitogen-activated protein kinase kinase kinase 4) #2, how do the results read?
log2 vehicle/camptothecin viability: -0.736; viability with camptothecin: 67.1

What did the screen give for MAP3K4 (mitogen-activated protein kinase kinase kinase 4) #3?
log2 vehicle/camptothecin viability: -0.16; viability with camptothecin: 120

Which result is listed for MAP3K4 (mitogen-activated protein kinase kinase kinase 4) #4?
log2 vehicle/camptothecin viability: -0.124; viability with camptothecin: 86.4

How did the screen score GEMIN4 (gem nuclear organelle associated protein 4) #1?
log2 vehicle/camptothecin viability: 0.241; viability with camptothecin: 42.1

How did the screen score GEMIN4 (gem nuclear organelle associated protein 4) #2?
log2 vehicle/camptothecin viability: 0.256; viability with camptothecin: 48.6

Which result is listed for GEMIN4 (gem nuclear organelle associated protein 4) #3?
log2 vehicle/camptothecin viability: -0.285; viability with camptothecin: 93.9

Which result is listed for GEMIN4 (gem nuclear organelle associated protein 4) #4?
log2 vehicle/camptothecin viability: -0.0664; viability with camptothecin: 55

Sorted by “log2 vehicle/camptothecin viability” (lowest first): some entries from above
MAP3K4 (mitogen-activated protein kinase kinase kinase 4) #2 → log2 vehicle/camptothecin viability = -0.736; viability with camptothecin = 67.1
MAP3K4 (mitogen-activated protein kinase kinase kinase 4) #1 → log2 vehicle/camptothecin viability = -0.284; viability with camptothecin = 104
